These are yes or no findings as the source states them, for the method shown. In cells and extracts the contact can be indirect. Some results given as binding are weak or reduced against the parent protein; the word gives no strength.

Protein sequences, listed by entry. Tags and fused reporters are not part of them.
UniProt Q07820: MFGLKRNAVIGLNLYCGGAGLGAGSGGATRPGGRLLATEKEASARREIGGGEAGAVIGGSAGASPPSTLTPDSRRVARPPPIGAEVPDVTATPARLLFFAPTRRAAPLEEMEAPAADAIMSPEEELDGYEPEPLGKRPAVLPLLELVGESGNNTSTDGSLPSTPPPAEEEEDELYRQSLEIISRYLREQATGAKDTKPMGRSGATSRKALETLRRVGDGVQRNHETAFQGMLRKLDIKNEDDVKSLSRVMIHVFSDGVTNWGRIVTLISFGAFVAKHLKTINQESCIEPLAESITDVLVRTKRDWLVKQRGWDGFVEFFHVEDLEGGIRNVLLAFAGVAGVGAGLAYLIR
UniProt Q93008: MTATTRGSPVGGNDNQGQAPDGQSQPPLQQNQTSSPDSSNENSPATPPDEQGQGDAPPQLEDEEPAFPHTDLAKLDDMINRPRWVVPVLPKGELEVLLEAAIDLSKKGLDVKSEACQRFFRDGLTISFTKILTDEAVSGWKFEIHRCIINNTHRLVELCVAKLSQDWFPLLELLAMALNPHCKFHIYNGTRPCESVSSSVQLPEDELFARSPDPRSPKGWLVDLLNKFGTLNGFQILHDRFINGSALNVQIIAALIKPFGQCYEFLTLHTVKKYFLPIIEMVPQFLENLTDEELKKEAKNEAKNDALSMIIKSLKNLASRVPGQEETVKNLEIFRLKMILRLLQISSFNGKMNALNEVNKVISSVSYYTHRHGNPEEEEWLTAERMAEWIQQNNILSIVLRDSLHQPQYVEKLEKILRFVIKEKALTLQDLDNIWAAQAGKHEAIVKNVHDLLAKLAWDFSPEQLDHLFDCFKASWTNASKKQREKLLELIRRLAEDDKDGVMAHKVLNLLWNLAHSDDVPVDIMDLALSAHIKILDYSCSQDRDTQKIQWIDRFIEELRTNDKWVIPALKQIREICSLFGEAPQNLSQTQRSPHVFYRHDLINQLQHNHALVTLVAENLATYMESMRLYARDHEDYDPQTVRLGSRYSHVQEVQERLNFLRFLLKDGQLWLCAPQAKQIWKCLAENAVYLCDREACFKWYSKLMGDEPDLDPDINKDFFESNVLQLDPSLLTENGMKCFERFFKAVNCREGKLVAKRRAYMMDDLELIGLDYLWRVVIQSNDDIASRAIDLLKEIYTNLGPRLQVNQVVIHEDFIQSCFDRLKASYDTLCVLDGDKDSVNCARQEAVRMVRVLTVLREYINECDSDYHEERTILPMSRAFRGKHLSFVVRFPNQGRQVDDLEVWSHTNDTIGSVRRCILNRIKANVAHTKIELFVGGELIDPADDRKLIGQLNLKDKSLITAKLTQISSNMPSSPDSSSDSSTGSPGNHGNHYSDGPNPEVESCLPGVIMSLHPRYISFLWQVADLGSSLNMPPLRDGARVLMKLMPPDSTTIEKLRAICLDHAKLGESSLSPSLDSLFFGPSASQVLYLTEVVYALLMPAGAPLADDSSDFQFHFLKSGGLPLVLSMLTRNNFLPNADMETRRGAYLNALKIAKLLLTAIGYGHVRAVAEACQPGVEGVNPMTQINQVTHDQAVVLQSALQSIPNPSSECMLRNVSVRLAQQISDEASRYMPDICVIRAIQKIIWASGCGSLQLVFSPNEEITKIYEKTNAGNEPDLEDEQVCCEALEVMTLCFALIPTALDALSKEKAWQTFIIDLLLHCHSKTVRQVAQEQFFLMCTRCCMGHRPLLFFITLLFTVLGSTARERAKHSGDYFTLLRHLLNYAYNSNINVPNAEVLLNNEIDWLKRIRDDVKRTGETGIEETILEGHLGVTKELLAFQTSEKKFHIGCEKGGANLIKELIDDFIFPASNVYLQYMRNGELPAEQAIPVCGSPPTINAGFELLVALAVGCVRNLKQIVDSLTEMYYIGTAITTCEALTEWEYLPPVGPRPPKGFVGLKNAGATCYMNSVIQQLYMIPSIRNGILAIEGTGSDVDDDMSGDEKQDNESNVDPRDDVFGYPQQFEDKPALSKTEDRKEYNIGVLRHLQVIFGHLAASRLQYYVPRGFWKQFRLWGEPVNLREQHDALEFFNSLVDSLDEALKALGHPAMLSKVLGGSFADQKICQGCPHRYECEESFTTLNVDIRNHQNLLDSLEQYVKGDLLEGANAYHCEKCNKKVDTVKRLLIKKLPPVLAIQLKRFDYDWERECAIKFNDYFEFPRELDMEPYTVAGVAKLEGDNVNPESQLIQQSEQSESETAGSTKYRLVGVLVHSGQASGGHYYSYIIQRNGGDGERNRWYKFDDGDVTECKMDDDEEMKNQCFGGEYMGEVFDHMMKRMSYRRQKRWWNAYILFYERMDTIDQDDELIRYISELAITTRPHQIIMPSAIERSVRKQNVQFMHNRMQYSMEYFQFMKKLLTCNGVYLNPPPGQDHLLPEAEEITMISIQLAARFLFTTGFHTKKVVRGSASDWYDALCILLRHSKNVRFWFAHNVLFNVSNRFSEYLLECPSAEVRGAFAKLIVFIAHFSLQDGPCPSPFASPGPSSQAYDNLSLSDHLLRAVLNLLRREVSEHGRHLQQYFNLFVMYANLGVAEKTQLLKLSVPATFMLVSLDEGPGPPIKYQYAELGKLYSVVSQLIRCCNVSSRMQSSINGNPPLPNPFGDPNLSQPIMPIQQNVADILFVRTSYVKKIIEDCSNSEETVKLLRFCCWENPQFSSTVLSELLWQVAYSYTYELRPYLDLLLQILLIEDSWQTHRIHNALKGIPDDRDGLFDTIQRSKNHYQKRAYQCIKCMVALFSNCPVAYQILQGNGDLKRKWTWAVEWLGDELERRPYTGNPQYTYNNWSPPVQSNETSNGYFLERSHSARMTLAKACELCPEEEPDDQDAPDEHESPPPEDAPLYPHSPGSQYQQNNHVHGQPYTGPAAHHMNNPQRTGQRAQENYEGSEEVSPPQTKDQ
UniProt P12956: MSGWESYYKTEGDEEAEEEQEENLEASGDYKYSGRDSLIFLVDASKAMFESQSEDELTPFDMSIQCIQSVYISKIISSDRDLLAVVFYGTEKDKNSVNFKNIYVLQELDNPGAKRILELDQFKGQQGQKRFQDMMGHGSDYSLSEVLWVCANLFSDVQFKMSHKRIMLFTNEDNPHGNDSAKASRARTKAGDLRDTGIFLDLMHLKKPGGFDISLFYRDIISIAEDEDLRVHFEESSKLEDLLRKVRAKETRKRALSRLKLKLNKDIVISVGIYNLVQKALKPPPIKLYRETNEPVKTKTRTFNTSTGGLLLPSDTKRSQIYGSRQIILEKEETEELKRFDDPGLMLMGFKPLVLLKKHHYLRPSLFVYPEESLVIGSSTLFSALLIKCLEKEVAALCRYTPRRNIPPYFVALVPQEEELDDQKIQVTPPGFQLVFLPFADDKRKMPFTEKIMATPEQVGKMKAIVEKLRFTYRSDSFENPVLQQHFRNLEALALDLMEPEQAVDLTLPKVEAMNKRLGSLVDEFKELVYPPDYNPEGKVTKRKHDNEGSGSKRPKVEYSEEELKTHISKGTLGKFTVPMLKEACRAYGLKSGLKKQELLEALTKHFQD

We go through two substances from article PMC9763423.

The target of this assay is myeloid cell leukemia-1 (MCL-1) (human (endogenous in CAL27R)) (UniProt Q07820). Kind of assay: co-IP; endogenous MCL-1 and deubiquitinases, CAL27R sgCtrl and TRAF4 knockout cells treated with/without IR (2 Gy) for 20 min; primary antibody and Protein A/G agarose beads, immunoblot. A general note: In western blotting, separated proteins are transferred to a membrane and probed.

As for “USP9X (from UniProt Q93008 1-2554) (enzyme)”, the binding entry is “binds”.
Turning to Ku70 (from UniProt P12956 1-609), the binding entry is on record as “binds”.
